Consider one molecule from US4657891A, “Diuretic peptide, and production and use thereof” (Suntory Limited, priority 1984, dated 1987).

Test [1] concerns Male rats. Kind of test: Diuretic and natriuretic test in anesthetized rats, urine collected before and 5 minutes after jugular vein injection (Table 2). It counts as in vivo, rat. The conditions noted are these: furosemide 1.21 μmole (group IV). The method, then: Male rats weighing 300 to 400 grams were anesthetized by intraperitoneal administration of pentobarbital at a dosage of 60 mg/kg, and used for tests of the β-rANP according to the method described in Life Sciences, Vol. 28, pp 89-94.
To keep the respiratory tract open, a tracheal cannula (PE-240 Clay-Adams) was inserted into the trachea. An arterial cannula (PE-50) was inserted into a femoral artery for measurement of the blood pressure, and a venous cannula was inserted into a femoral vein for the administration of Ringer's solution. 1.2 ml of Ringer's solution was infused at a flow rate of 1.2 ml/hour.
A bladder cannula made of silastic tube with a inner diameter of 0.02 inches and an outer diameter of 0.037 inches was inserted into the bladder, and via the cannula, a urine sample was collected into a test tube. The collection of urine was carried out for 30 minutes before administration of the test compound, and every five minutes after the administration.
A predetermined amount of the test compound β-rANP was dissolved in 50 μl of sterilized physiological saline with 5 μg of bacitracin, and the solution was injected into the jugular vein.
The amount of β-rANP administered was 0.4 n mole (group II), or 0.8 n mole (group III). The control group (group I) was administered 50 μl of physiological saline containing only bacitracin. For comparison, group IV received 50 μl of physiological saline containing bacitracin and 1.21μ mole of furosemide, which is a known natriuretic agent.
Groups I to III each consisted of three animals, and group IV consisted of four animals.

Test [2] has as its system Male rats. Kind of test: Another test: relative amounts of urine, Na+, K+, Cl- for 30 minutes before and after administration (Table 3). It counts as in vivo, rat. The conditions noted are these: Furosemide 0.3 μmol.
The mark [3] stands for this setting: A: 5 minutes after administration.
[4] abbreviates: B: 30 minutes before administration.

Consider `NS(=O)(=O)c1cc(C(=O)O)c(NCc2ccco2)cc1Cl` [Furosemide, furosemide], for which, in the test on Male rats [1] (setting [3]), the “Cl^- Excretion A” value is 40242 ± 6859 n eq/min, the “K^+ Excretion A” value was 6897 ± 392 n eq/min and the “Na^+ Excretion A” value came out at 20018 ± 2990 n eq/min. Also, in the test on Male rats [1] (setting [4]), the “Cl^- Excretion B” value stood at 1708 ± 334 n eq/min, the “K^+ Excretion B” value amounted to 1945 ± 465 n eq/min and the “Na^+ Excretion B” value is 1134 ± 283 n eq/min. In addition, in the test on Male rats [1] (urine, A: 5 minutes after administration), the “Na/K ratio A” value stood at 2.90. The “Na/K ratio B” value with Male rats [1] (urine, B: 30 minutes before administration) was found to be 0.58. Besides, in the test on Male rats [2], the “Cl^- Excretion, percentage after relating to before” value was 440 ± 129%; the “K^+ Excretion, percentage after relating to before” value is listed as 119 ± 13%; the “Na^+ Excretion, percentage after relating to before” value was determined as 470 ± 154%.
